The chains behind the UniProt entries cited, without tags or fusion partners. Where a name states a change or a piece, a line headed by the entry shows the natural chain unless it says otherwise.
UniProt P20309, whole entry: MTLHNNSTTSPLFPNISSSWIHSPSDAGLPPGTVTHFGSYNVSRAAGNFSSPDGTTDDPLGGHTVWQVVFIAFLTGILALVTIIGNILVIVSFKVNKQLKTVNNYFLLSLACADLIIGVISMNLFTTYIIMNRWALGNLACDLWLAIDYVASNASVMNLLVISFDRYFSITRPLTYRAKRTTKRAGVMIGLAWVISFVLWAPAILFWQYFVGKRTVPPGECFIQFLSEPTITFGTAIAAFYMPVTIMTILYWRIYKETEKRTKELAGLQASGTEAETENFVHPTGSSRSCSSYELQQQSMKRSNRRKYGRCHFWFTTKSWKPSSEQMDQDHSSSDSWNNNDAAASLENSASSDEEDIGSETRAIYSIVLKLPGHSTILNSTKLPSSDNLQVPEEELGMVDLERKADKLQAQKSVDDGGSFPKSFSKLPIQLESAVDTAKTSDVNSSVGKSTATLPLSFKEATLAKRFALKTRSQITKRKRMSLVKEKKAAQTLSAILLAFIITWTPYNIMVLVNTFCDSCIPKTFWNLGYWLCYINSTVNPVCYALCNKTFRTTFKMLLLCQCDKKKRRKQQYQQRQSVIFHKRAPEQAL

According to article PMC12302426, “Dihydrokoumine, a dual-target analgesic with reduced side effects isolated from a traditional Chinese medicine” (Journal of Advanced Research, 2024):

Molecular target: T1, M3R (Homo sapiens, UniProt P20309)
T1 construct: expressed in transfected cells; host or cells: HEK293 cell membranes
Assay: Radioligand binding assay, [3H] NMS
Conditions: [3H] NMS 0.2 nM
Experimental: Radioligand binding assays were conducted using MicroBeta2 (PerkinElmer, USA). Membrane protein preparations MOR and M3R were each prepared at a concentration of 2.5 µg/well. The radio ligands [^3H] DAMGO (specific for MOR) and [^3H]-NMS (specific for M3R) were prepared at concentrations of 0.5 nM and 0.2 nM, respectively. […] For each well, 1 µL of the serially diluted test compounds was transferred, followed by the addition of 100 µL of membrane stock solution and 100 µL of radioligand. The plates were sealed and shaken at 300 rpm at room temperature for one hour. Upon completion of the binding assay, the contents of each well were filtered through Unifilter-96 GF/C filter plates (PerkinElmer, USA). The filter plates were dried for one hour at 50°C and sealed. The trapped ^3H (tritium) on the filters was then quantified using the MicroBeta2. The percentage of inhibition or binding was subsequently calculated.

Question: `CN1[C@@H]2C[C@@H](OC(=O)[C@H](CO)c3ccccc3)C[C@H]1[C@@H]1O[C@@H]12` [scopolamine, reference compound] was tested. Which Ki did it give?
Answer: 0.17 ± 0.05 nM
